Measured values taken from US20180327752A1 (Stanford University, published 2018).
No constants are given. Whether binding was seen depends on the method and setting. Some results given as binding are weak or reduced against the parent protein; the word gives no strength. Where a sequence is shown, tags or fusion partners need not be part of it.

The chains behind the UniProt entries cited, without tags or fusion partners.
UniProt P03135: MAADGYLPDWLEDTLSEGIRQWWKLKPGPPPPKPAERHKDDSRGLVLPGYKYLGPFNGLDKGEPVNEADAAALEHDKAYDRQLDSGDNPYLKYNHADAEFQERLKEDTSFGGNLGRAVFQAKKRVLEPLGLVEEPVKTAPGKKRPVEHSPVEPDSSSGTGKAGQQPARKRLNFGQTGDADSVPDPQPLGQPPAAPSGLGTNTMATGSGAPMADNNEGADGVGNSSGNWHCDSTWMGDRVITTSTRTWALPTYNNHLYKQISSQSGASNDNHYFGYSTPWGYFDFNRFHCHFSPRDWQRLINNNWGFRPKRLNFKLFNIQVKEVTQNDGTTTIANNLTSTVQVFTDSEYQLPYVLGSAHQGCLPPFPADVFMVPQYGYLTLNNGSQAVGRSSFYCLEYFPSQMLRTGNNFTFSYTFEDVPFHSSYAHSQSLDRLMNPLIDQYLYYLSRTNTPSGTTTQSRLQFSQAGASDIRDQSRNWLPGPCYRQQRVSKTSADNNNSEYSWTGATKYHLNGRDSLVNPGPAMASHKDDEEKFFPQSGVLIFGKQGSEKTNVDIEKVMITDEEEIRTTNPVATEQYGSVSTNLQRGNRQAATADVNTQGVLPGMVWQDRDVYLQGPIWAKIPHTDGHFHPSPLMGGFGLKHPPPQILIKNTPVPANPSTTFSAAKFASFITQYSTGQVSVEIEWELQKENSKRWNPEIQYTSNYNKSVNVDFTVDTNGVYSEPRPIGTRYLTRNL

Columns and labels:
[1] = biological target: AAV2 particles (adeno-associated virus serotype 2 capsid) (adeno-associated virus serotype 2) (UniProt P03135); assay: ELISA, AAV2 particles coated
[2] = biological target: AAV2 particles (adeno-associated virus serotype 2 capsid) (adeno-associated virus serotype 2) (UniProt P03135); assay: ELISA, AAV2 VLPs coated, detection with anti-MBP-HRP
[3] = biological target: AAV2 particles (adeno-associated virus serotype 2 capsid) (adeno-associated virus serotype 2) (UniProt P03135); assay: ELISA with MBP control; SPR
[4] = biological target: AAV2 particles (adeno-associated virus serotype 2 capsid) (adeno-associated virus serotype 2) (UniProt P03135); assay: summary sentence of Example 1 (ELISA, SPR)
[5] = biological target: AAV2 particles (adeno-associated virus serotype 2 capsid) (adeno-associated virus serotype 2) (UniProt P03135); assay: ELISA: plates coated with AAV2 virus-like particles, soluble AAVR (MBP-PKD1-5) detected with anti-MBP-HRP, A450
[6] = biological target: AAV2 particles (adeno-associated virus serotype 2 capsid) (adeno-associated virus serotype 2) (UniProt P03135); assay: SPR (BIAcore X): His-tagged soluble AAVR immobilised on a CM5 chip, AAV-2 particles as analyte at 100, 250, 500 and 1000 nM

Measured: binding

B1: soluble AAVR (E. coli-expressed recombinant fusion between maltose-binding protein and AAVR PKD domains 1-5) (receptor)
chain: VSAGESVQITLPKNEVQLNAYVLQEPPKGETYTYDWQLITHPRDYSGEMEGKHSQILKLSKLTPGLYEFKVIVEGQNAHGEGYVNVTVKPEPRKNRPPIAIVSPQFQEISLPTTSTVIDGSQSTDDDKIVQYHWEELKGPLREEKISEDTAILKLSKLVPGNYTFSLTVVDSDGATNSTTANLTVNKAVDYPPVANAGPNQVITLPQNSITLFGNQSTDDHGITSYEWSLSPSSKGKVVEMQGVRTPTLQLSAMQEGDYTYQLTVTDTIGQQATAQVTVIVQPENNKPPQADAGPDKELTLPVDSTTLDGSKSSDDQKIISYLWEKTQGPDGVQLENANSSVATVTGLQVGTYVFTLTVKDERNLQSQSSVNVIVKEEINKPPIAKITGNVVITLPTSTAELDGSKSSDDKGIVSYLWTRDEGSPAAGEVLNHSDHHPILFLSNLVEGTYTFHLKVTDAKGESDTDRTTVEVKPDPR
notes: Used in the ELISA on AAV2 VLPs and in the neutralization assay; also called rAAVR1-5; MBP-AAVR PKD 1-5
not listed: [6]
binds: all other assays above

B2: His-tagged soluble AAVR (His-tagged MBP fusion with AAVR PKD domains 1-5) (receptor)
chain: VSAGESVQITLPKNEVQLNAYVLQEPPKGETYTYDWQLITHPRDYSGEMEGKHSQILKLSKLTPGLYEFKVIVEGQNAHGEGYVNVTVKPEPRKNRPPIAIVSPQFQEISLPTTSTVIDGSQSTDDDKIVQYHWEELKGPLREEKISEDTAILKLSKLVPGNYTFSLTVVDSDGATNSTTANLTVNKAVDYPPVANAGPNQVITLPQNSITLFGNQSTDDHGITSYEWSLSPSSKGKVVEMQGVRTPTLQLSAMQEGDYTYQLTVTDTIGQQATAQVTVIVQPENNKPPQADAGPDKELTLPVDSTTLDGSKSSDDQKIISYLWEKTQGPDGVQLENANSSVATVTGLQVGTYVFTLTVKDERNLQSQSSVNVIVKEEINKPPIAKITGNVVITLPTSTAELDGSKSSDDKGIVSYLWTRDEGSPAAGEVLNHSDHHPILFLSNLVEGTYTFHLKVTDAKGESDTDRTTVEVKPDPR
notes: Construct immobilised on the CM5 chip for SPR; also called AAVR (SPR ligand); not shown: His tag
binds: [6]
